PubChem BioAssay AID504764 – Drosophila RNAi Screening Center | 2011

Screen: 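Knock-downs that raise or lower a Notch target reporter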 (primary screen)
Cell system: Drosophila Kc167 cells
Reagents: long dsRNA against Drosophila genes
Timing: about 5 days (4 days dsRNA, then 24 h after transfection)
Challenge: transfection of constitutively active membrane-tethered Notch lacking the extracellular domain, read 24 h later
Detection: 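Light from a Notch-responsive E(spl)m3 luciferase reporter under active Notch, with control-promoter and no-Notch reporter wells to normalise; raw counts from paired wells a and b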
Direction: induced reporter light, run 1, well a and induced reporter light, run 1, well b: higher = more light from the Notch target reporter with active Notch; control promoter light, run 1, well a and control promoter light, run 1, well b: higher = more light from the viral control promoter (cell number, transfection, viability); uninduced reporter light, run 1, well a: higher = more light from the Notch target reporter without active Notch
Call rule: 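Wells with low control signal or poorly matching duplicates excluded; duplicates averaged; per source plate, z beyond ±2 for induced/control log2 ratio or beyond ±1.8 for induced/uninduced marks a hit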
Calls: active = modifier hit (raised or lowered Notch signal); inactive = not a hit
The screen tested about 22,000 reagents; this is an unselected part of those that have a named target and a result. Over the whole deposit, 403 (1.9%) got an active call. 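Unnormalised raw counts per well; ratio z-scores behind the hit calls and whether each hit raises or lowers signal are not deposited.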 Unmarked entries are inactive. Names joined by + are all predicted targets of the reagent. Not stated in the record: the amount of reagent.

target	induced reporter light, run 1, well a	induced reporter light, run 1, well b	control promoter light, run 1, well a	control promoter light, run 1, well b	uninduced reporter light, run 1, well a
Or43b (Odorant receptor 43b)	2.36e5	1.80e5	2.30e5	2.19e5	16515
Cpr5C (Cuticular protein 5C)	1.35e5	1.44e5	2.81e5	2.49e5	9582
Ag5r (Antigen 5-related)	2.33e5	2.41e5	3.07e5	2.84e5	16015
Alp13 (Alkaline phosphatase 13)	72790	85800	70425	67195	4820
CG1468	1.33e5	1.52e5	1.52e5	1.55e5	9728
Acp36DE (Accessory gland protein 36DE)	1.64e5	1.83e5	1.55e5	1.44e5	13000
slou (slouch)	1.81e5	1.37e5	1.80e5	1.77e5	13060
Prosalpha1R + Prosalpha1	1.46e5	1.40e5	99255	1.05e5	7850
CG18063	1.42e5	1.47e5	1.72e5	2.07e5	12590
slgA (sluggish A)	1.42e5	1.57e5	1.27e5	62000	9090
RtcB (RtcB RNA ligase)	42215	27545	32195	32390	2925
CG4836	1.78e5	1.73e5	2.16e5	2.55e5	14690
CG7910	73170	90585	69305	71305	5600
Gmppa (GDP-mannose pyrophosphorylase A)	1.05e5	99575	1.41e5	1.28e5	8310
CG14654 (retired record)	1.37e5	1.06e5	1.27e5	1.15e5	9440
trx (trithorax)	57500	47735	42760	37155	5340
CG13814 (retired record)	67520	49320	44505	38125	3790
CG3225	1.82e5	1.83e5	1.71e5	2.00e5	17145
Rsph9 (Radial spoke head protein 9)	48855	75085	63150	69525	5535
Ipo9 (Importin 9)	41705	44890	42815	35000	2995

Reprinted from the listing (2 entries):
target	induced reporter light, run 1, well a	induced reporter light, run 1, well b	control promoter light, run 1, well a	control promoter light, run 1, well b	uninduced reporter light, run 1, well a
trx (trithorax)	57500	47735	42760	37155	5340
CG13814 (retired record)	67520	49320	44505	38125	3790
